{"source": "paper PMC6335200", "about": "(Journal of medicinal chemistry, 2018)", "tested_on": "MDR1", "assay": "in vitro", "settings": "dog, MDCK-MDR1"}
{"smiles": "CC(C)NCC(O)COc1ccc(CC(N)=O)cc1", "note": "(stereo not drawn) [Atenolol, atenolol]", "values": [{"measurement": "Papp A→B at 1.5 h, 5 µM", "result": 1.21, "unit": "×10⁻⁶ cm/s"}, {"measurement": "Papp B→A at 1.5 h, 5 µM", "result": 1.25, "unit": "×10⁻⁶ cm/s"}, {"measurement": "efflux ratio at 1.5 h, 5 µM", "result": 1.03}]}
